Results reported in the supplement of paper PMC10849652.
The list shows a part of the results.

Chains of the proteins cited; added tags and fusions are not shown. Lines headed by an entry give the natural chain unless they say otherwise; changes in a name come on top.
UniProt P62195, whole entry, looked up: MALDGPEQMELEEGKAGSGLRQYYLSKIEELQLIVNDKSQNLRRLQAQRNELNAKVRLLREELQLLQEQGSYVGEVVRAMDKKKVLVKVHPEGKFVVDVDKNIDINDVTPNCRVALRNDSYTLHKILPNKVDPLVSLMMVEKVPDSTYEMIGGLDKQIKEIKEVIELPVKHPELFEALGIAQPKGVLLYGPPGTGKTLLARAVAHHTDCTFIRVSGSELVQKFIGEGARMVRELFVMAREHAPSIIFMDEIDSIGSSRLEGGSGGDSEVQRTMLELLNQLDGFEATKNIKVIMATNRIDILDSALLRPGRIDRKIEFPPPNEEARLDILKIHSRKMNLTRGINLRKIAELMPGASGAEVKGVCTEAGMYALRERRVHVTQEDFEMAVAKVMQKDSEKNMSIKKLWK
UniProt Q08623: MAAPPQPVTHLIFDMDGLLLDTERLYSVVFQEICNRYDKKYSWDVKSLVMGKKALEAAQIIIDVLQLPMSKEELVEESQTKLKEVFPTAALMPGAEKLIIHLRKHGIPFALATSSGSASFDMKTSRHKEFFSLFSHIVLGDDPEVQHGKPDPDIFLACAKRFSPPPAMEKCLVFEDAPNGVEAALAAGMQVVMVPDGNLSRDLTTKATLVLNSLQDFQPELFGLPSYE
UniProt P25787: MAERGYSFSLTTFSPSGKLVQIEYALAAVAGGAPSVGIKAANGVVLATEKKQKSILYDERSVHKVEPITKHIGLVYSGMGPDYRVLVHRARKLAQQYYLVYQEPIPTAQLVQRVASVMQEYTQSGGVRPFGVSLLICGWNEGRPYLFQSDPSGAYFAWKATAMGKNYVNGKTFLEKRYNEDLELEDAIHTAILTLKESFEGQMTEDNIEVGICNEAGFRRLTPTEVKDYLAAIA
UniProt Q9UHX1: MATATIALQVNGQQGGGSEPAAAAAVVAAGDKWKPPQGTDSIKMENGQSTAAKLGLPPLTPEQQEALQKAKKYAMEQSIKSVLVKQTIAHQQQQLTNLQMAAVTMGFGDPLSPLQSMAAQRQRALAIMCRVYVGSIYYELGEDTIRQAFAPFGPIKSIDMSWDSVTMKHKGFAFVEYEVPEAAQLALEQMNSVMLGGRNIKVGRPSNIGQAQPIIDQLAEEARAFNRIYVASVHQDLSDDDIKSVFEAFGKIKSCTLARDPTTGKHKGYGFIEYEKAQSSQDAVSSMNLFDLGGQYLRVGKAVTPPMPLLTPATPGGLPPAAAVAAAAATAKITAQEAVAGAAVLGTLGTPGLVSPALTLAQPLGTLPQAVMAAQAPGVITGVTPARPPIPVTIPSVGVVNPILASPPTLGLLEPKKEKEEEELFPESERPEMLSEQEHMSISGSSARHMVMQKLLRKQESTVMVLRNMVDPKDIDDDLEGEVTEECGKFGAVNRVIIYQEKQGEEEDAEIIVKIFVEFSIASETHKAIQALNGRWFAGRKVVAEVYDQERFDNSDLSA
UniProt P17980, whole entry, looked up: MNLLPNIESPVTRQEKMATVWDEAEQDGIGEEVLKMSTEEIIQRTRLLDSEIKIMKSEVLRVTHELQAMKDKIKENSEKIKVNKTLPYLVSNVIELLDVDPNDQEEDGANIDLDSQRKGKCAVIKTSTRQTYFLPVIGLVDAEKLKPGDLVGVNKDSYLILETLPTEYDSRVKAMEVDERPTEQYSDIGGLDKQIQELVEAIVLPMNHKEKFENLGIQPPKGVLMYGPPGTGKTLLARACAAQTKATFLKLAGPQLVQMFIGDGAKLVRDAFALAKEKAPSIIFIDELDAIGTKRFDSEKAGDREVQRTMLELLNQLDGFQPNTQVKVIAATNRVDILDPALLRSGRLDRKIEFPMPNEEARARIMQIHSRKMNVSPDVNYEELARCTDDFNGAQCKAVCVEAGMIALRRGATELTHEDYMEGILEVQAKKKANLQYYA
UniProt Q99436: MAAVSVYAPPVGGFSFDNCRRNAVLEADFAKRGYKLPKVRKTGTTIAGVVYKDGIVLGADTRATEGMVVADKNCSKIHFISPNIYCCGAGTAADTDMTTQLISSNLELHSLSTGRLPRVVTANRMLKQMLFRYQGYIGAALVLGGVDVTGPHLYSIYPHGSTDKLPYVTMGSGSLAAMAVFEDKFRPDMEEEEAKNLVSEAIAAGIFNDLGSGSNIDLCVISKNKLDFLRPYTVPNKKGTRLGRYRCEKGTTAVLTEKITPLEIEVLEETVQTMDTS
UniProt Q8WUK0: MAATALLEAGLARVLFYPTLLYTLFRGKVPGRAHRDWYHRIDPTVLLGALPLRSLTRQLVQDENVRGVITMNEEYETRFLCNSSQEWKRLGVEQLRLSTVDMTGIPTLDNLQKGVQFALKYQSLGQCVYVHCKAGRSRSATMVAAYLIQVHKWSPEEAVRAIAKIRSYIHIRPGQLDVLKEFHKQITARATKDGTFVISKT
UniProt Q9UNM6: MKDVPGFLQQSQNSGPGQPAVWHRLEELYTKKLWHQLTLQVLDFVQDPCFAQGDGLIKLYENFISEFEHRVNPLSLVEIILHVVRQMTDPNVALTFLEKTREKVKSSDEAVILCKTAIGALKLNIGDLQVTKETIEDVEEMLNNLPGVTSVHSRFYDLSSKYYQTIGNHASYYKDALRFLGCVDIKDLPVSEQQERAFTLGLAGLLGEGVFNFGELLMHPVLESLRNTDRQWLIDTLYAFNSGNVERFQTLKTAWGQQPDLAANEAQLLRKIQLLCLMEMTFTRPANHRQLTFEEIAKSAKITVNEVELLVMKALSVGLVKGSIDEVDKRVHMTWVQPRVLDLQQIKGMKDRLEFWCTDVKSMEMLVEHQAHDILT
UniProt O00231, whole entry, looked up: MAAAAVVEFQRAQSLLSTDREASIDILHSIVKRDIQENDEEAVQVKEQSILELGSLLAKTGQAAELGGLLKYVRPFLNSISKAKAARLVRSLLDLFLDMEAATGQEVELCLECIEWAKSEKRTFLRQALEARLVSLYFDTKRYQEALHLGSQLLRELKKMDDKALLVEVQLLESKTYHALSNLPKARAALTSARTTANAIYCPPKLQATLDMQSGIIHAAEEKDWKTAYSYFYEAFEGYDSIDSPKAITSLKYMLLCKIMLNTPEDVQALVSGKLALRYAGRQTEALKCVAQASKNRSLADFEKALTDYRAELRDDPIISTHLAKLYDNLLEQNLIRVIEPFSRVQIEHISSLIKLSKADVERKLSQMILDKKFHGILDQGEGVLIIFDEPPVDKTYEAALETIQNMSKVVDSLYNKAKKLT
UniProt P60900, whole entry, looked up: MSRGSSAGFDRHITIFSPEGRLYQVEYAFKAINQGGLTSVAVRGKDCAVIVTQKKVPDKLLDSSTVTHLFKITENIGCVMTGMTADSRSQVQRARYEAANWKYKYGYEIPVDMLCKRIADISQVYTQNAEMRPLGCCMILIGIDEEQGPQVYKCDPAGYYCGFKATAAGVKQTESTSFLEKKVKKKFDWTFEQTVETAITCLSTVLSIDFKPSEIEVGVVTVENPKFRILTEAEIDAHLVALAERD
UniProt Q8WXF1: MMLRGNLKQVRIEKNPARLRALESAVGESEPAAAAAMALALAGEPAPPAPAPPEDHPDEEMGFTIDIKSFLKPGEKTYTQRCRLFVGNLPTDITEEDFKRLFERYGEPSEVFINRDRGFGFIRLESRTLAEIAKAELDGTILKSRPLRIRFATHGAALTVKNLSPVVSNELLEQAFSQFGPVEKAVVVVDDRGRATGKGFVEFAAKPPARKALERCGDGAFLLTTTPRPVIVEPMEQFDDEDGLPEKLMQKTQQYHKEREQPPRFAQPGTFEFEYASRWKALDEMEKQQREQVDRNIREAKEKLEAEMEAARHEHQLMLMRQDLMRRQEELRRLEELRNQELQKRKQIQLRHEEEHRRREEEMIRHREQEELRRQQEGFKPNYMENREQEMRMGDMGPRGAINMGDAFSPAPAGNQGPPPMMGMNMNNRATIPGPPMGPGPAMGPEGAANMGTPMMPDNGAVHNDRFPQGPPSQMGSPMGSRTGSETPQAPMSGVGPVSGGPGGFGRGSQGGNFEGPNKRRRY
UniProt Q05397, whole entry, looked up: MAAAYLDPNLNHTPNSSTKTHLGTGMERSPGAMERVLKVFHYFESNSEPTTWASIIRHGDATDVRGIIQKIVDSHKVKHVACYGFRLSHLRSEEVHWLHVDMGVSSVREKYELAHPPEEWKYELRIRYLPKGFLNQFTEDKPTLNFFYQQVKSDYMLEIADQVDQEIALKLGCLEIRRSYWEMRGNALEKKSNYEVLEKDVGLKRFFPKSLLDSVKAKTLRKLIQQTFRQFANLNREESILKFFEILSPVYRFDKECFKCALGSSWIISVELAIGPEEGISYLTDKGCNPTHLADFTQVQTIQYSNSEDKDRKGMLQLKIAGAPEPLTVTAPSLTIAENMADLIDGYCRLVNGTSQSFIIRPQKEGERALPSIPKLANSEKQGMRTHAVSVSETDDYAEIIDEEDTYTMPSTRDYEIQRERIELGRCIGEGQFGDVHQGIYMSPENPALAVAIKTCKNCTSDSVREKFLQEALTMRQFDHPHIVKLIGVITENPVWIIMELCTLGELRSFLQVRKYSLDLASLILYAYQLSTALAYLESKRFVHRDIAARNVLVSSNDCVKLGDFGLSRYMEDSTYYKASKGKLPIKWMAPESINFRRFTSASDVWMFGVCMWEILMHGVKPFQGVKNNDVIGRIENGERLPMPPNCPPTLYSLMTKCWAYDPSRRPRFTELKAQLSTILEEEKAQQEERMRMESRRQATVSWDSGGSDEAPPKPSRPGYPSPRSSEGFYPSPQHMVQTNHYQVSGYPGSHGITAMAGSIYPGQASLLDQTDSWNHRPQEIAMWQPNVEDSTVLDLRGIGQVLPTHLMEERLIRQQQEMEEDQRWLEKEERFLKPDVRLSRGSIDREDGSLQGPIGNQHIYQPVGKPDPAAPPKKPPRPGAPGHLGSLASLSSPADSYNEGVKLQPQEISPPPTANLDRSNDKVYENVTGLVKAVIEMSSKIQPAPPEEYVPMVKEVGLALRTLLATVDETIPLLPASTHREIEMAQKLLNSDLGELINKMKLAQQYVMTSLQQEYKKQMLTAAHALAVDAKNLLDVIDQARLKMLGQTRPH
UniProt P48556: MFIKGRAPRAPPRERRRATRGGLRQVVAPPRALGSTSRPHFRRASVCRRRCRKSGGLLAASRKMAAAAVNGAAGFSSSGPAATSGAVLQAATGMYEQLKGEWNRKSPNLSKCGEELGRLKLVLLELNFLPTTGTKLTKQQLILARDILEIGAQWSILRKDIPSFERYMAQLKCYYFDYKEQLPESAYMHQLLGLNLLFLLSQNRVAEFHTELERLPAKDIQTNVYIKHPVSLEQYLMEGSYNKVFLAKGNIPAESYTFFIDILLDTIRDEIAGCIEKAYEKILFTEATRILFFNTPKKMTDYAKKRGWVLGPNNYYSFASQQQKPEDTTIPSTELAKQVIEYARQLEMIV

Tests used:
Test in all cases: log2 fold change, soluble protein after heating vs DMSO (PISA); higher = thermal stabilisation; K562 lysate, 10 uM; active = over 0.2 and 3.5 SD of the protein, either way, in both replicates (recomputed)
[1] = compound: CCCS(=O)(=O)Nc1ccc(F)c(C(=O)c2c[nH]c3ncc(-c4ccc(Cl)cc4)cc23)c1F [vemurafenib]
In short: (§1)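 Values give the log-two fold change in thermal stability against solvent controls, from duplicates. Crude K562 extract at 1 mg/mL protein, made by dounce homogenisation in PBS pH 7.4 with 1 mM MgCl2, was treated with 10 μM compound for 30 min. After 3 min heating across 48°C-58°C, aliquots were pooled, adjusted to 0.5% NP-40 at 4°C and centrifuged at 21,000xg for 90 min. The supernatant was measured by TMTpro 16plex LC-MS/MS with channel sums equalised.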

[2] = compound: CCCS(=O)(=O)Nc1ccc(F)c(C(=O)c2c[nH]c3ncc(Cl)cc23)c1F
In short: as §1

[3] = compound: CCN(CCCOc1ccc2c(Nc3cc(CC(=O)Nc4cccc(F)c4)[nH]n3)ncnc2c1)CCOP(=O)(O)O [barasertib]
In short: as §1

[4] = compound: CC[C@@H]1C(=O)N(C)c2cnc(Nc3ccc(C(=O)NC4CCN(C)CC4)cc3OC)nc2N1C1CCCC1
In short: as §1

[5] = compound: CC[C@@H]1C(=O)N(C)c2cnc(Nc3ccc(C(=O)N[C@H]4CC[C@H](N5CCN(CC6CC6)CC5)CC4)cc3OC)nc2N1C(C)C [volasertib]
In short: as §1

[6] = compound: CCn1c(C(=O)N(C2CC2)C2CC2)cc2c3c(ncn3C)c(Nc3cc(C)n(C)n3)nc21
In short: as §1

[7] = compound: CCn1cc(-c2ccnc3[nH]c(-c4cccc(CN(C)C)c4)cc23)c(-c2ccc(NC(=O)N(C)C)cc2)n1
In short: as §1

[8] = compound: CN1CCC(CNc2ccc3ncc(-c4cccc(OC(F)(F)F)c4)n3n2)CC1
In short: as §1

[9] = compound: CN1CCN(CCOc2cc(OC3CCOCC3)c3c(Nc4c(Cl)ccc5c4OCO5)ncnc3c2)CC1 [saracatinib]
In short: as §1

[10] = compound: CN1CCN(c2nc(C3=C(c4c[nH]c5ccccc45)C(=O)NC3=O)c3ccccc3n2)CC1 [sotrastaurin]
In short: as §1

[11] = compound: CN1CC[C@H](c2c(O)cc(O)c3c(=O)cc(-c4ccccc4Cl)oc23)[C@H](O)C1 [alvocidib]
In short: as §1

[12] = compound: CN1CCc2c(c3ccccc3n2Cc2ccc(C(=O)NO)cc2)C1 [Tubastatin A]
In short: as §1

[13] = compound: CNC(=O)C1=CC=CC=C1NC2=NC(=NC=C2Cl)NC3=C(C=C(C=C3)N4CCOCC4)OC
In short: as §1

[14] = compound: CNC(=O)c1ccc(Nc2ncc(C(F)(F)F)c(NCc3nccnc3N(C)S(C)(=O)=O)n2)cc1 [defactinib]
In short: as §1

[15] = compound: CNc1nc(-c2ccc3c(N)n[nH]c3c2)cc(N2C[C@@H](C(=O)NC3CCCCC3)CC[C@H]2C)n1
In short: as §1

[16] = compound: COC(=O)N[C@@H](C)CNc1nccc(-c2cn(C(C)C)nc2-c2cc(Cl)cc(NS(C)(=O)=O)c2F)n1 [encorafenib]
In short: as §1

[17] = compound: COC(=O)[C@H](CCSC)NC(=O)C1=C(C=C(C=C1)NC[C@H](CS)N)C2=CC=CC=C2
In short: as §1

[18] = compound: COc1cc(Nc2ncc3c(n2)-c2ccc(Cl)cc2C(c2c(F)cccc2OC)=NC3)ccc1C(=O)O [alisertib]
In short: as §1

[19] = compound: COc1cc2nc(-c3cc(F)ccc3O)nc(N[C@@H]3CNC[C@H]3C(C)(C)O)c2cc1OC
In short: as §1

[20] = compound: COc1cc2ncnc(Nc3ccc(F)c(Cl)c3)c2cc1OCCCN1CCOCC1 [gefitinib]
In short: as §1

Target | log2 fold change [1] | log2 fold change [2] | log2 fold change [3] | log2 fold change [4] | log2 fold change [5] | log2 fold change [6] | log2 fold change [7] | log2 fold change [8] | log2 fold change [9] | log2 fold change [10] | log2 fold change [11] | log2 fold change [12] | log2 fold change [13] | log2 fold change [14] | log2 fold change [15] | log2 fold change [16] | log2 fold change [17] | log2 fold change [18] | log2 fold change [19] | log2 fold change [20]
PSMC5 (UniProt P62195) | inactive: -0.014 | inactive: 0.008 | inactive: -0.01 | inactive: -0.058 | inactive: -0.041 | inactive: -0.021 | inactive: 0.081 | inactive: -0.037 | inactive: -0.007 | inactive: 0.017 | inactive: 0.044 | inactive: -0.001 | inactive: 0.014 | inactive: -0.003 | inactive: -0.002 | inactive: 0.001 | inactive: 0.032 | inactive: -0.005 | inactive: -0.006 | inactive: -0.016
PSEN1 (UniProt P49768) | inactive: -0.135 | inactive: -0.018 | inactive: 0.127 | inactive: -0.109 | inactive: 0.006 | inactive: 0.074 | inactive: 0.093 | inactive: -0.06 | inactive: 0.066 | inactive: -0.022 | inactive: 0.064 | inactive: 0.006 | inactive: 0.038 | inactive: -0.01 | inactive: 0.116 | inactive: -0.084 | inactive: 0.154 | inactive: -0.064 | inactive: 0.023 | inactive: 0.16
PUDP isoform 4 (UniProt Q08623) | inactive: 0.033 | inactive: -0.01 | inactive: 0.181 | inactive: 0.075 | inactive: 0.007 | inactive: -0.023 | inactive: -0.047 | inactive: 0.056 | inactive: -0.042 | inactive: -0.025 | inactive: 0.014 | inactive: 0.066 | inactive: 0.016 | inactive: 0.06 | inactive: 0.02 | inactive: 0.01 | inactive: -0.023 | inactive: -0.017 | inactive: -0.007 | inactive: -0.016
PSMA2 (UniProt P25787) | inactive: -0.021 | inactive: -0.006 | inactive: -0.037 | inactive: 0.011 | inactive: 0.019 | inactive: -0.015 | inactive: 0.036 | inactive: 0.011 | inactive: 0 | inactive: 0.001 | inactive: -0.014 | inactive: 0.051 | inactive: -0.008 | inactive: 0.013 | inactive: -0.001 | inactive: -0.008 | inactive: -0.003 | inactive: 0.009 | inactive: 0.03 | inactive: -0.01
PUF60 (UniProt Q9UHX1) | inactive: 0.002 | inactive: 0.015 | inactive: -0.005 | inactive: 0.002 | inactive: 0.003 | inactive: -0.015 | inactive: 0.116 | inactive: -0.018 | inactive: 0 | inactive: -0.02 | inactive: 0.003 | inactive: 0.019 | inactive: -0.02 | inactive: -0.012 | inactive: 0.008 | inactive: -0.013 | inactive: 0.019 | inactive: 0.005 | inactive: -0.009 | inactive: -0.022
PSMC3 (UniProt P17980) | inactive: 0 | inactive: 0.009 | inactive: -0.017 | inactive: -0.005 | inactive: -0.057 | inactive: -0.021 | inactive: 0.031 | inactive: -0.023 | inactive: 0.008 | inactive: -0.011 | inactive: 0.025 | inactive: -0.013 | inactive: 0.004 | inactive: -0.003 | inactive: -0.016 | inactive: 0.013 | inactive: 0.064 | inactive: 0.027 | inactive: 0 | inactive: -0.005
PSMB7 (UniProt Q99436) | inactive: 0.02 | inactive: -0.013 | inactive: -0.024 | inactive: 0.017 | inactive: 0.037 | inactive: -0.025 | inactive: -0.039 | inactive: 0.035 | inactive: 0.003 | inactive: 0.015 | inactive: -0.024 | inactive: 0.032 | inactive: -0.008 | inactive: -0.025 | inactive: 0.027 | inactive: -0.016 | inactive: 0.016 | inactive: -0.03 | inactive: 0.029 | inactive: -0.012
PTPMT1 (UniProt Q8WUK0) | inactive: -0.077 | inactive: 0.011 | inactive: 0.154 | inactive: 0.005 | inactive: -0.006 | inactive: -0.11 | inactive: 0.197 | inactive: -0.427 | inactive: 0.016 | inactive: -0.135 | inactive: 0.119 | inactive: -0.313 | inactive: 0.009 | inactive: 0.012 | inactive: 0.056 | inactive: -0.057 | inactive: 0.014 | inactive: 0.04 | inactive: -0.294 | inactive: -0.031
PSMD13 (UniProt Q9UNM6) | inactive: -0.05 | inactive: -0.022 | inactive: 0.095 | inactive: -0.102 | inactive: -0.015 | inactive: 0.016 | inactive: -0.044 | inactive: -0.021 | inactive: -0.011 | inactive: -0.045 | inactive: 0.021 | inactive: -0.017 | inactive: -0.007 | inactive: 0.032 | inactive: -0.038 | inactive: -0.004 | inactive: 0.024 | inactive: 0.011 | inactive: 0.009 | inactive: -0.027
PSMD11 (UniProt O00231) | inactive: -0.027 | inactive: 0.004 | inactive: 0.005 | inactive: -0.031 | inactive: -0.032 | inactive: -0.007 | inactive: -0.011 | inactive: -0.008 | inactive: 0.009 | inactive: -0.022 | inactive: 0.028 | inactive: 0.011 | inactive: 0.006 | inactive: 0.017 | inactive: -0.022 | inactive: -0.009 | inactive: 0.042 | inactive: 0.001 | inactive: 0 | inactive: -0.029
PTPN11 isoform 1 (UniProt Q06124) | inactive: -0.019 | inactive: 0.005 | inactive: 0.006 | inactive: 0.013 | inactive: -0.015 | inactive: 0.041 | inactive: 0.01 | inactive: 0.022 | inactive: -0.015 | inactive: 0.015 | inactive: -0.001 | inactive: -0.018 | inactive: -0.033 | inactive: -0.022 | inactive: -0.01 | inactive: -0.002 | inactive: 0.006 | inactive: -0.007 | inactive: 0.004 | inactive: 0.019
PSMA6 (UniProt P60900) | inactive: -0.024 | inactive: 0.002 | inactive: -0.03 | inactive: 0.003 | inactive: 0.03 | inactive: -0.038 | inactive: 0.063 | inactive: 0.023 | inactive: -0.015 | inactive: 0.008 | inactive: -0.001 | inactive: 0.025 | inactive: 0.002 | inactive: -0.005 | inactive: 0.009 | inactive: -0.023 | inactive: 0.003 | inactive: -0.001 | inactive: 0.001 | inactive: -0.016
PSPC1 (UniProt Q8WXF1) | inactive: -0.012 | inactive: 0.005 | inactive: 0.019 | inactive: 0.011 | inactive: 0.013 | inactive: -0.01 | inactive: 0.056 | inactive: -0.041 | inactive: 0.045 | inactive: -0.013 | inactive: 0.034 | inactive: -0.032 | inactive: 0.009 | inactive: 0.032 | inactive: 0.055 | inactive: 0.011 | inactive: -0.001 | inactive: -0.004 | inactive: -0.007 | inactive: 0.001
PTDSS1 (UniProt P48651) | inactive: -0.111 | inactive: 0.003 | inactive: 0.06 | inactive: -0.002 | inactive: -0.084 | inactive: 0.05 | inactive: 0.011 | inactive: -0.041 | inactive: 0.049 | inactive: -0.002 | inactive: -0.089 | inactive: -0.08 | inactive: -0.056 | inactive: 0.085 | inactive: 0.023 | inactive: 0.059 | inactive: -0.166 | inactive: -0.032 | inactive: -0.078 | inactive: 0.118
PTK2 (UniProt Q05397) | inactive: 0.017 | inactive: -0.091 | inactive: -0.015 | inactive: 0.352 | inactive: 0.145 | inactive: 0.044 | inactive: -0.001 | inactive: 0.056 | inactive: -0.023 | inactive: 0.039 | inactive: 0.02 | inactive: -0.033 | active: 0.54 | active: 0.518 | inactive: -0.055 | inactive: -0.057 | inactive: -0.126 | inactive: 0.17 | inactive: 0.113 | inactive: -0.022
PSMD8 (UniProt P48556) | inactive: -0.022 | inactive: 0.023 | inactive: 0.042 | inactive: -0.058 | inactive: -0.04 | inactive: 0.034 | inactive: -0.017 | inactive: 0.064 | inactive: -0.003 | inactive: -0.019 | inactive: -0.021 | inactive: -0.017 | inactive: 0.019 | inactive: 0.047 | inactive: -0.013 | inactive: -0.002 | inactive: 0.058 | inactive: 0.028 | inactive: -0.026 | inactive: -0.047

2 records picked at random from those above, as already listed:
Target | log2 fold change [1] | log2 fold change [2] | log2 fold change [3] | log2 fold change [4] | log2 fold change [5] | log2 fold change [6] | log2 fold change [7] | log2 fold change [8] | log2 fold change [9] | log2 fold change [10] | log2 fold change [11] | log2 fold change [12] | log2 fold change [13] | log2 fold change [14] | log2 fold change [15] | log2 fold change [16] | log2 fold change [17] | log2 fold change [18] | log2 fold change [19] | log2 fold change [20]
PSMC3 (UniProt P17980) | inactive: 0 | inactive: 0.009 | inactive: -0.017 | inactive: -0.005 | inactive: -0.057 | inactive: -0.021 | inactive: 0.031 | inactive: -0.023 | inactive: 0.008 | inactive: -0.011 | inactive: 0.025 | inactive: -0.013 | inactive: 0.004 | inactive: -0.003 | inactive: -0.016 | inactive: 0.013 | inactive: 0.064 | inactive: 0.027 | inactive: 0 | inactive: -0.005
PSPC1 (UniProt Q8WXF1) | inactive: -0.012 | inactive: 0.005 | inactive: 0.019 | inactive: 0.011 | inactive: 0.013 | inactive: -0.01 | inactive: 0.056 | inactive: -0.041 | inactive: 0.045 | inactive: -0.013 | inactive: 0.034 | inactive: -0.032 | inactive: 0.009 | inactive: 0.032 | inactive: 0.055 | inactive: 0.011 | inactive: -0.001 | inactive: -0.004 | inactive: -0.007 | inactive: 0.001
